We go through 40 compounds from the supplement of paper PMC9578143, “Small-Molecule Ebselen Binds to YTHDF Proteins Interfering with the Recognition of N^6-Methyladenosine-Modified RNAs” (ACS Pharmacology & Translational Science, 2022).

This is one part of the list. Part of the spread comes from offsets between plates or batches.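 Hits were defined as a z-score below −3.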

The target in the assay is T1, YTHDF1 YTH domain (aa 365-554) (UniProt Q9BYJ9).
T1 sequence (whole entry): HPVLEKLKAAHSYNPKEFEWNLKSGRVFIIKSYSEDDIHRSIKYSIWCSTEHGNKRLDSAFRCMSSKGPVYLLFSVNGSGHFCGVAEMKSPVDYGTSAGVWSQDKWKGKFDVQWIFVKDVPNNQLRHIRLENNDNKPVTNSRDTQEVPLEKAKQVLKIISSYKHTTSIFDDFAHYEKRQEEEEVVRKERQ
The assay can be described thus: tryptophan fluorescence intensity z-score (mean); higher = higher fluorescence, less quenching (negative = binding / quenching). As to conditions: 10 µM.
As to `C[C@]12CC[C@@H]3c4ccc(O)cc4CC[C@H]3[C@@H]1CCC2=O` (plate: M 3-4), the “tryptophan fluorescence intensity z-score” value is inactive: 0.0347.

In the case of `CN(C)[C@@H]1C(O)=C(C(N)=O)C(=O)[C@@]2(O)C(O)=C3C(=O)c4c(O)ccc(Cl)c4[C@@](C)(O)[C@H]3C[C@@H]12` (plate: M 1-2), the “tryptophan fluorescence intensity z-score” value is inactive: -0.0417.

Regarding `O=C1OC2(c3ccc(O)cc3Oc3cc(O)ccc32)c2ccccc21` (plate: M 11-12), the “tryptophan fluorescence intensity z-score” value was inactive: 0.0595.

On to `CC(=O)OCC1=C(C(=O)O)N2C(=O)[C@@H](NC(=O)CSc3ccncc3)[C@H]2SC1` (plate: M 1-2), for which the “tryptophan fluorescence intensity z-score” value was inactive: 0.396.

As for `CCCCC(CC)CN=C(N)N=C(N)NCCCCCCNC(N)=NC(N)=NCC(CC)CCCC` (stereo not given) (plate: M 21-22), the “tryptophan fluorescence intensity z-score” value was inactive: -1.3.

Consider `COc1ccc2[nH]c([S+]([O-])Cc3ncc(C)c(OC)c3C)nc2c1` (stereo not given) (plate: M 11-12), for which the “tryptophan fluorescence intensity z-score” value was inactive: -0.356.

As to `COC(=O)C(C)c1ccc(C(=O)c2cccs2)cc1` (stereo not given) (plate: M 21-22), the “tryptophan fluorescence intensity z-score” value is inactive: 0.168.

As to `C=CCSCC(N)C(=O)O` (stereo not given) (plate: M 23-24), the “tryptophan fluorescence intensity z-score” value is inactive: 0.802.

For the compound `COC(=O)[C@@H]1OC(=O)C2OC23[C@@]1(C)CCC1[C@]2(C)C(C[C@H](O)[C@]13C)C(C)(C)[C@H](OC(C)=O)C[C@@H]2OC(C)=O` (stereo partly drawn) [7beta-HYDROXY-7-DESACETOXYKHIVORINICACID,METHYLESTER] (plate: M 15-16), the “tryptophan fluorescence intensity z-score” value is inactive: 0.764.

For `O=C(O)c1cc(O)c(=O)c2c(O)c(O)ccc2c1` (plate: M 23-24), the “tryptophan fluorescence intensity z-score” value was inactive: -0.0654.

Consider `CC(=O)Nc1ccc(O)cc1` (plate: M 1-2), for which the “tryptophan fluorescence intensity z-score” value is inactive: 0.313.

For the compound `CC(=O)Oc1c(C)c(C)c2c(c1C)CCC(C)(CCCC(C)CCCC(C)CCCC(C)C)O2` (stereo not drawn) [alpha-TOCHOPHERYLACETATE] (plate: M 1-2), the “tryptophan fluorescence intensity z-score” value was inactive: 0.631.

`CC(CCC(=O)O)[C@H]1CCC2C3CC[C@@H]4CC(=O)CC[C@]4(C)C3C=C[C@@]21C` (stereo not given in full) (plate: M 17-18): the “tryptophan fluorescence intensity z-score” value was inactive: 0.507.

On to `OCCOCCN1CCN(C(c2ccccc2)c2ccc(Cl)cc2)CC1` (stereo not given) (plate: M 3-4), for which the “tryptophan fluorescence intensity z-score” value was inactive: -0.0398.

With `CC(=O)O[C@H]1C[C@@H](OC(C)=O)C(C)(C)C2C[C@@H](O)[C@]3(C)C(CC[C@@]4(C)[C@H](c5ccoc5)OC(=O)[C@H]5O[C@]543)[C@]21C` (stereo not given in full) (plate: M 13-14), the “tryptophan fluorescence intensity z-score” value is inactive: 0.877.

For the compound `COc1ccc2c(c1)OCC(Cc1ccc(OC)c(OC(C)=O)c1)C2=O` (stereo not given) (plate: M 15-16), the “tryptophan fluorescence intensity z-score” value was inactive: 0.199.

Take `COc1ccc(-c2coc3c(OC)c(OC)cc(O)c3c2=O)cc1` (plate: M 15-16): the “tryptophan fluorescence intensity z-score” value was inactive: -0.00599.

`CC(C)CCC[C@@H](C)[C@H]1CC[C@H]2[C@@H]3C(=O)C=C4C[C@@H](O)CC[C@]4(C)[C@H]3CC[C@]12C` (plate: M 23-24): the “tryptophan fluorescence intensity z-score” value was inactive: 0.147.

`Cc1cc(-n2c(=O)[nH]c(=O)n(C)c2=O)ccc1Oc1ccc(SC(F)(F)F)cc1` (plate: M 11-12): the “tryptophan fluorescence intensity z-score” value is inactive: -1.11.

As to `CO[C@H]1[C@H](O)[C@@H](O)[C@H](O)[C@H](O)[C@H]1O` (plate: M 19-20), the “tryptophan fluorescence intensity z-score” value was inactive: 0.298.

For the compound `Cc1ccccc1N1C(=O)c2cc(S(N)(=O)=O)c(Cl)cc2NC1C` (stereo not given) (plate: M 13-14), the “tryptophan fluorescence intensity z-score” value is inactive: 0.824.

Take `CC1=C(CC(=O)O)c2cc(F)ccc2/C1=C\c1ccc([S+](C)[O-])cc1` (stereo not given) (plate: M 5-6): the “tryptophan fluorescence intensity z-score” value is inactive: -0.00825.

`CCc1cccc2c3c([nH]c12)C(CC)(CC(=O)O)OCC3` (stereo not given) (plate: M 7-8): the “tryptophan fluorescence intensity z-score” value was inactive: 0.847.

For the compound `Cc1noc(NS(=O)(=O)c2ccc(N)cc2)c1C` (plate: M 5-6), the “tryptophan fluorescence intensity z-score” value was inactive: 0.142.

With `CCCCC(=O)O[C@]1(C(=O)CO)CC[C@H]2[C@@H]3CCC4=CC(=O)CC[C@]4(C)[C@H]3[C@@H](O)C[C@@]21C` (plate: M 11-12), the “tryptophan fluorescence intensity z-score” value was inactive: -0.0437.

As to `CN(C)CCCO[C@@H]1[C@H]2OC(C)(C)O[C@H]2O[C@@H]1[C@H](O)CO` (plate: M 7-8), the “tryptophan fluorescence intensity z-score” value is inactive: -0.0213.

Take `C[C@]12CC[C@@H]3c4ccc(O)cc4CC[C@H]3[C@@H]1C[C@@H](O)[C@@H]2O` (plate: M 3-4): the “tryptophan fluorescence intensity z-score” value is inactive: -0.679.

With `Cc1cccc2c3c(ccc12)C1=C(C(=O)C3=O)[C@@H](C)CO1` (plate: M 21-22), the “tryptophan fluorescence intensity z-score” value was inactive: -0.0302.

For `CCOc1ccc(C(=O)c2ccc(O)c(O)c2O)cc1` (plate: M 15-16), the “tryptophan fluorescence intensity z-score” value is inactive: -0.183.

As for `Cn1nnnc1SCC1=C(C(=O)O)N2C(=O)[C@@H](NC(=O)[C@H](OC=O)c3ccccc3)[C@H]2SC1` (plate: M 7-8), the “tryptophan fluorescence intensity z-score” value is inactive: -0.186.

Turning to `CC(=O)N[C@@H](Cc1ccccc1)C(=O)O` (plate: M 23-24), the “tryptophan fluorescence intensity z-score” value was inactive: 0.546.

As for `CCOC(=O)[C@H](CCc1ccccc1)N[C@@H](C)C(=O)N1CCC[C@H]1C(=O)O` (plate: M 7-8), the “tryptophan fluorescence intensity z-score” value is inactive: 0.0367.

In the case of `C[C@H](CCC(=O)O)[C@H]1CC[C@H]2[C@@H]3CC[C@@H]4CCCC[C@]4(C)[C@H]3CC[C@]12C` (plate: M 17-18), the “tryptophan fluorescence intensity z-score” value was inactive: 0.301.

Consider `N=C(N)NC(=O)c1nc(Cl)c(N2CCCCCC2)nc1N` (plate: M 23-24), for which the “tryptophan fluorescence intensity z-score” value is inactive: -0.034.

As for `OCC(O)C(O)C(O)C(O)C(O)CO` (stereo not given) (plate: M 15-16), the “tryptophan fluorescence intensity z-score” value was inactive: 0.366.

With `COc1cc(O)c(C)c(O)c1` (plate: M 21-22), the “tryptophan fluorescence intensity z-score” value is inactive: 0.695.

In the case of `N[C@@H](C(=O)N[C@@H]1C(=O)N2C(C(=O)O)=C(Cl)CS[C@H]12)c1ccccc1` (plate: M 5-6), the “tryptophan fluorescence intensity z-score” value is inactive: 0.328.

As for `C[C@@H]1CC[C@@]2(OC1)O[C@H]1C[C@H]3[C@@H]4CC[C@@H]5C[C@@H](O)CC[C@]5(C)[C@H]4CC[C@]3(C)[C@H]1[C@@H]2C` (plate: M 15-16), the “tryptophan fluorescence intensity z-score” value is inactive: -0.0195.

As to `COc1ccc(-c2cc(C(F)F)nn2-c2ccc(S(N)(=O)=O)cc2)cc1F` (plate: M 9-10), the “tryptophan fluorescence intensity z-score” value was inactive: -0.647.

Turning to `CC(Oc1ccccc1)C(=O)N[C@@H]1C(=O)N2[C@@H]1SC(C)(C)[C@@H]2C(=O)O` (stereo not given in full) (plate: M 5-6), the “tryptophan fluorescence intensity z-score” value is inactive: 0.0903.
